Data published in PubChem BioAssay AID504467 (National Center for Advancing Translational Sciences (NCATS), 2011).
About 7,700 (2.3%) of roughly 330,000 compounds were called active. Inconclusive means that the source gave no clear call. Such entries were picked first, then a sample of the others. The call rests on the fitted dose curve; in most records, active means well fitted inhibition curve with a large enough effect; inconclusive means small, poorly fitted or top-dose-only effect, or effect the other way; inactive means flat fitted curve, though single readings scatter. A potency beside an inconclusive call is a rough fit, not a confirmed value.

Assay: qHTS screen for small molecules that inhibit ELG1-dependent DNA repair in human embryonic kidney (HEK293T) cells expressing luciferase-tagged ELG1; further: nearly all actives have a fitted effect of over 55% in size
Details: HEK293T ELG1-luciferase reporter, luminescence, 16 h, DNA damage induced by 5-fluorouridine; activity change, negative = inhibition: at 46.1 µM (top of the series)
How it was run: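 Luminescence from the luciferase reporter, measured 30 min after ONE-Glo reagent at room temperature, was the read-out. Beforehand, 2,000 cells per well were exposed for 16 hr at 37 °C to 5-fluorouridine together with compound or vehicle.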
On the % scale 0 is the no-effect control and ±100 the full control effect; potency means the concentration at half of the fitted maximal effect.

Row | SMILES | Potency | activity change, negative = inhibition
1 | Cc1ccc(NC(=O)CSCc2ccc(F)cc2)cc1 | inconclusive: 20.6 µM [activator, partial curve] | 
2 | CC(C)(C)OC(=O)NCCCC[C@H](NC(=O)c1[nH]cnc1C(=O)Nc1ccccc1)C(=O)OC(C)(C)C | inconclusive: 29.1 µM [inhibitor, single point] | 
3 | CN(C)C(=O)N1CCC(C(=O)NC2CCCCCCC2)CC1 |  | inactive: 3.7%
4 | FC(F)C(F)(F)Oc1cccc(-c2n[nH]c(=S)n2Cc2ccccc2)c1 |  | inactive: 1.22%
5 | CC(=O)N1CCN(c2ccc(NC(=O)c3ccc(Cl)c([N+](=O)[O-])c3)cc2)CC1 |  | inactive: -13.3%
6 | Cc1ccccc1OCC(=O)Nc1ccc(S(=O)(=O)N2CCCC2)cc1 |  | inactive: -17.5%
7 | Cc1cc(C(=O)Nc2ccc(Br)cn2)sc1C | inconclusive: 1.64 µM [activator, full curve] | 
8 | O=C(Nc1ccc(NC(=O)c2ccc([N+](=O)[O-])o2)cc1Cl)c1ccco1 |  | inactive: -2.1%
9 | COc1cc(OC)cc(-c2c(C#Cc3ccsc3)c3cc(-c4ccc5[nH]ccc5c4)ccc3n2C)c1 | inconclusive: 16.4 µM [activator, partial curve, poor fit] | 
10 | Nc1cccc2cc(-c3ccccc3)oc12 | inconclusive: 4.61 µM [activator, full curve] | 
11 | COc1cc(C(CCN2CCN(c3ccccc3)CC2)c2c(OC)cc(OC)c3c(C)cc(=O)oc23)cc(OC)c1OC (centres undefined) | inconclusive: 25.9 µM [inhibitor, single point] | 
12 | O=C1c2ccccc2[C@@H]2C[C@H]3O[C@H]3CCN12 |  | inactive: 16.6%
13 | O=C(NNC(=S)NC(=O)c1cccs1)c1ccc(O)cc1 |  | inactive: -1.41%
14 | O=C(Nc1ccccc1)c1ccc2c(c1)OCO2 | inconclusive: 14.6 µM [activator, partial curve] | 
15 | COc1ccc(NS(=O)(=O)c2ccc(Br)s2)cc1OC | inconclusive: 8.2 µM [inhibitor, partial curve, poor fit] | 
16 | Cc1ccc2nc(N/C(=N/S(=O)(=O)c3ccc(F)cc3F)c3ccccc3)sc2c1 | inconclusive: 2.31 µM [activator, single point] | 
17 | O=C(CSc1nnc(-c2ccc(O)cc2)o1)Nc1cccc(O)c1 | inconclusive: 16.4 µM [activator, partial curve] | 
18 | COc1ccc(C(=O)N/N=C/c2c(CO)cnc(C)c2O)cc1 | active: 13 µM | 
19 | O=C(c1cc([N+](=O)[O-])ccc1Cl)N1CCN(Cc2ccccc2)CC1 |  | inactive: -6.54%
20 | CC(C)(C)OC(=O)N1CCC[C@H]1C(=O)N/N=C/c1ccc2ncccc2c1 |  | inactive: 0.0453%
21 | COc1ccc(NC(=O)c2ccc(NC(=O)CN(C)CC(=O)Nc3c(C)cccc3C)cc2)cc1 | inconclusive: 20.6 µM [inhibitor, single point] | 
22 | CC(=O)NNC(=O)c1sc(=S)n2c1[nH]c(=O)c1sccc12 | inconclusive: 5.17 µM [activator, partial curve, poor fit] | 
23 | COc1ccc(S(=O)(=O)N2CCN(C(=O)N(C)C)C2C)cc1 (centres undefined) | inconclusive: 0.259 µM [activator, single point] | 

From no. 12 to 16, as listed above:
Row | SMILES | Potency | activity change, negative = inhibition
12 | O=C1c2ccccc2[C@@H]2C[C@H]3O[C@H]3CCN12 |  | inactive: 16.6%
13 | O=C(NNC(=S)NC(=O)c1cccs1)c1ccc(O)cc1 |  | inactive: -1.41%
14 | O=C(Nc1ccccc1)c1ccc2c(c1)OCO2 | inconclusive: 14.6 µM [activator, partial curve] | 
15 | COc1ccc(NS(=O)(=O)c2ccc(Br)s2)cc1OC | inconclusive: 8.2 µM [inhibitor, partial curve, poor fit] | 
16 | Cc1ccc2nc(N/C(=N/S(=O)(=O)c3ccc(F)cc3F)c3ccccc3)sc2c1 | inconclusive: 2.31 µM [activator, single point] | 

Following part

Row | SMILES | Potency | activity change, negative = inhibition
24 | CCOC(=O)c1c(C)c(C(=O)NCc2ccc3c(c2)OCO3)c(C)n1CC | inconclusive: 32.6 µM [inhibitor, single point] | 
25 | CON(C)S(=O)(=O)c1cccc(C(=O)N(CC(=O)Nc2ccccc2C(F)(F)F)Cc2ccco2)c1 | inconclusive: 7.3 µM [inhibitor, single point] | 
26 | CCN(CC)S(=O)(=O)c1cc(NC(=O)Cn2cnc3ccccc3c2=O)ccc1C | inconclusive: 8.2 µM [inhibitor, partial curve, poor fit] | 
27 | CCOc1ccccc1NS(=O)(=O)c1ccc2oc(=O)ccc2c1 |  | inactive: -0.144%
28 | Cc1cc(C)nc(Nc2ccc(C)c([N+](=O)[O-])c2)n1 | inconclusive: 29.1 µM [activator, partial curve, poor fit] | 
29 | COc1ccc(OC)c(/C=N/NC(=O)CCN2CCN(C(c3ccccc3)c3ccccc3)CC2)c1 | inconclusive: 29.1 µM [inhibitor, single point] | 
30 | O=S(=O)(c1ccc(Cl)s1)N1CCN(Cc2ccccc2)CC1 |  | inactive: -8.85%
31 | O=C(CCN1CCN(CCO)CC1)Nc1cccc(Br)c1 |  | inactive: 0%
32 | COc1ccc(S(=O)(=O)Nc2ccc(-n3cccc3)cc2)cc1 | inconclusive: 7.3 µM [inhibitor, partial curve, poor fit] | 
33 | Cc1cccc(OCCCC(=O)Nc2ccccc2C(F)(F)F)c1 | inconclusive: 20.6 µM [inhibitor, single point] | 
34 | O=C(NCc1ccc(F)cc1)C1CC(=O)N(C2CCCCCCC2)C1 (centres undefined) |  | inactive: -0.301%
35 | Cc1ccc2c(c1)C=CC(C)(C)S2=O (centres undefined) |  | inactive: -6.3%
36 | COc1ccc(OC)c(NC(=O)CSc2ccc3nnc(-c4ccccn4)n3n2)c1 |  | inactive: 6.75%
37 | COc1cc(/C(C)=N\NC(N)=S)cc(OC)c1OC | inconclusive: 20.6 µM [activator, partial curve, poor fit] | 
38 | COc1ccc(OC)c(-c2csc(NC(=O)CSCC(=O)Nc3cc(C)on3)n2)c1 |  | inactive: -28.1%
39 | O=C(O)c1cccc2c1C(=O)c1ccc(-c3ccc(OC(F)(F)F)cc3)cc1S2(=O)=O | inconclusive: 16.4 µM [activator, single point] | 
40 | COc1ccc(C(=O)Nc2cnc(NC(=O)c3cccs3)cc2C)cc1 | inconclusive: 4.11 µM [activator, single point] | 
41 | Cc1sc2nc(C3CC3)nc(SCC(=O)N3c4ccccc4CC3C)c2c1C (centres undefined) | inconclusive: 29.1 µM [inhibitor, partial curve, poor fit] | 
42 | CC(C)(C)CN1CCC(Oc2cccc(C(=O)N3CCC[C@H]3CO)c2)CC1 | inconclusive: 14.6 µM [activator, partial curve] | 
43 | CCOC(=O)c1c(C)[nH]c(C)c1S(=O)(=O)NCCCN1CCOCC1 | inconclusive: 7.3 µM [activator, partial curve, poor fit] | 
44 | CNC(=S)N/N=C/c1c(C)nn(-c2ccccc2)c1Cl | inconclusive: 14.6 µM [activator, partial curve] | 
45 | COc1cccc(COc2ncnc3sccc23)c1 | inconclusive: 32.6 µM [activator, partial curve, poor fit] | 
46 | O=C(Oc1cccc(Nc2ncnc3ccccc23)c1)c1ccccc1Cl | inconclusive: 18.4 µM [inhibitor, partial curve, poor fit] | 

Row | SMILES | Potency | activity change, negative = inhibition
47 | CCCCN(C(=O)c1ccc(S(=O)(=O)N2CCC(C)CC2)cc1)C1CCS(=O)(=O)C1 (centres undefined) |  | inactive: -5.63%
48 | CC(C)CNC(=S)NNC(=O)c1ccc2c(c1)OCO2 | inconclusive: 23.1 µM [activator, partial curve, poor fit] | 
49 | N/C(=N\OC(=O)c1ccc2c(c1)OCO2)c1cccnc1 | inconclusive: 16.4 µM [activator, partial curve] | 
50 | COc1ccc2c(c1)C=CC1(O2)N(CCO)c2ccccc2C1(C)C (centres undefined) | inconclusive: 20.6 µM [activator, single point] | 
51 | Cc1cccc(NC(=O)c2cc(C)nc3ccccc23)c1 |  | inactive: 21.3%
52 | Cc1cc(/C(N)=N/OC(=O)c2cccc(Cl)c2)no1 | inconclusive: 18.3 µM [activator, partial curve] | 
53 | C[C@]12CC[C@H]3[C@@H](CCC4=CC(=O)CC[C@@]43C)[C@@H]1CC[C@@H]2C(=O)CO |  | inactive: 4.13%
54 | CC(C)C(=O)Nc1nc(-c2ccc([N+](=O)[O-])cc2)cs1 | inconclusive: 20.6 µM [inhibitor, single point] | 
55 | CCOc1cc(CNc2ccc(OC)cc2)cc(Br)c1OCC(=O)NC(C)(C)C |  | inactive: 1.85%
56 | O=C(C1CCN(S(=O)(=O)c2cccc3nsnc23)CC1)N1CCCc2ccccc21 | inconclusive: 18.4 µM [inhibitor, partial curve] | 
57 | Cc1ccc2cc(CN(Cc3ccco3)C(=O)NCc3ccccc3)c(=O)[nH]c2c1C | inconclusive: 5.17 µM [inhibitor, single point] | 
58 | Clc1ccc(-c2ccc(CN3CCCCC3)o2)cc1 | inconclusive: 32.6 µM [activator, partial curve, poor fit] | 
59 | NCCNC(=O)Cc1ccc(NC(=O)Cc2ccc(Nc3ncnc4c3ncn4[C@@H]3O[C@H](CO)[C@@H](O)[C@H]3O)cc2)cc1 | inconclusive: 25.1 µM [activator, partial curve, poor fit] | 
60 | Cc1ccc(/C=C/C(=O)Nc2cccc3ncccc23)o1 |  | inactive: 1.9%
61 | O=C(Nc1cccc(Cl)c1)c1ccc(NCC2CCCO2)c([N+](=O)[O-])c1 (centres undefined) | inconclusive: 11.6 µM [activator, partial curve] | 
62 | Cc1ccc(S(=O)(=O)Nc2ccc(C(=O)OCC(=O)N(CCC#N)c3ccccc3)cc2)cc1C |  | inactive: -2.45%
63 | Cc1ccc(C(=O)C(c2ccccc2)N2Cc3ccccc3C2=N)cc1 (centres undefined) | inconclusive: 29.1 µM [inhibitor, single point] | 
64 | Cn1nnnc1Sc1ncnc2scc(-c3cccc(S(C)(=O)=O)c3)c12 | inconclusive: 8.2 µM [inhibitor, partial curve] | 
65 | Cc1cc(C)cc(C(=O)/C=C2\NC(=O)CS2)c1 |  | inactive: 0.0703%
66 | CCOC(=O)N1CCC(NC(=O)c2ccc(CO)c(C(=O)NC3CCN(C(=O)OCC)CC3)c2)CC1 |  | inactive: 7.49%
67 | CC(C)c1cc(C(=O)N2CCCC(CCC(=O)NCc3ccccc3F)C2)n(C)n1 (centres undefined) | inconclusive: 10.3 µM [inhibitor, partial curve, poor fit] | 
68 | COc1cnc(-c2ccccn2)nc1Oc1c(C)cccc1C | inconclusive: 25.9 µM [inhibitor, single point] | 
69 | O=C(COC(=O)CCC1CCCC1)Nc1ccc(Cl)cn1 | inconclusive: 6.51 µM [inhibitor, single point] | 
